Tests used:
[1] = CO2/N2 gas mixtures bubbled into sensor solution
Source text: Gas mixtures with different ratios of CO2/N2 were bubbled into solutions containing (I1) at a constant volume and rate (governed by a mass flow controller). […] It could sense a mixture of 1.5% CO2 with a signal to noise of ˜20. Both polar and nonpolar solvents have been used, including water, boding well for a wide range of interdisciplinary applications, without diverging results.

[2] = Fluorescent turn-on response in presence and absence of CO2 (DMSO)
Source text: Compound (I1) was solubilised in DMSO and involved in carbon dioxide detection experiment, resulting in the compound of formula (I1b).
The compound (I1) was placed in the presence and absence of CO2 (FIG. 2). […] The turn-on response was saturated at a signal-to-noise ratio of 260.

## CCN(CC)c1ccc2c(NCc3ccccc3N=P(c3ccccc3)(c3ccccc3)c3ccccc3)cc(=O)oc2c1 [Compound (I1)]
[1]; different ratios of CO2/N2, constant volume and rate
  response to CO2/N2 ratio: CO2 dose-dependent response
[1]; mixture of 1.5% CO2 in CO2/N2
  signal to noise: ~20
[2]; absence of carbon dioxide
  fluorescent response in the absence of carbon dioxide: negligible fluorescent response
[2]; upon bubbling carbon dioxide, emission 455 nm
  signal-to-noise ratio at saturation of the turn-on response: 260
[2]; upon bubbling carbon dioxide, identical to spectra of (I1b)
  maximal emission: 455 nm
